Where two headings read alike, the source gives them in different places.
Columns and labels:
[1] = rabbits, single oral dose 10 mg kg^−1, n = 5, mean; unit as in Table 4
in vivo = conditions: albino, rabbit, plasma, po, 10 mg/kg
[2] = values reported in human studies; cited from earlier work
[3] = share of elimination; cited from earlier work

**Q.** Which AUC0→t [1] does the source give for `CC(C)(C(=O)O)c1ccc(C(O)CCCN2CCC(C(O)(c3ccccc3)c3ccccc3)CC2)cc1` (centres unmarked) [fexofenadine, Fexofenadine] here?
**A.** The AUC0→t was 6018 ng/mL/h.

**Q.** What about the “AUC0→∞” value [1] of the same molecule?
**A.** Its value is 6495 ng/mL/h.

**Q.** And the AUC(0-inf) (in vivo)?
**A.** Its AUC(0-inf) is 6500 ng·h/mL.

**Q.** What about the AUC(0-t) (in vivo) of the same molecule?
**A.** The AUC(0-t) was 6020 ± 1120 ng·h/mL.

**Q.** And the MRT inf (in vivo)?
**A.** The MRT inf was 15.5 h.

**Q.** What about the Tmax (in vivo) of the same molecule?
**A.** The Tmax was 3.6 h.

**Q.** What about the Tmax [2] of the same molecule?
**A.** The Tmax was 49.8 to 79.8 min.

**Q.** What about the renal excretion [3] of the same molecule?
**A.** Its renal excretion is 11%.

From paper PMC12054466 (RSC Advances, 2025)
